No constants are given. Whether binding was seen depends on the method and setting. For some assays here: Where a sequence is shown, tags or fusion partners need not be part of it.
How the values were obtained:
[1] = target: V5His-tagged human β1 integrin (β1A isoform) (human) (UniProt P05556); assay: far-Western, overlay or dot blot; β1 or α3 integrin immunoprecipitated from transfected 5637 cells, left untreated or treated with EndoHf or PNGase F, resolved by SDS-PAGE and transferred to PVDF; overlaid with FimC_(6XHisFLAG)–FimH, FimC_(6XHisFLAG)–FimH plus 2.5% D-mannose, or FimC_(6XHisFLAG) alone; detected with anti-FLAG antibody; both purified
[2] = target: T1, human α3 integrin (untagged) (human) (UniProt P26006); assay: as above
T1 sequence (chain, N-linked oligosaccharides (untreated)): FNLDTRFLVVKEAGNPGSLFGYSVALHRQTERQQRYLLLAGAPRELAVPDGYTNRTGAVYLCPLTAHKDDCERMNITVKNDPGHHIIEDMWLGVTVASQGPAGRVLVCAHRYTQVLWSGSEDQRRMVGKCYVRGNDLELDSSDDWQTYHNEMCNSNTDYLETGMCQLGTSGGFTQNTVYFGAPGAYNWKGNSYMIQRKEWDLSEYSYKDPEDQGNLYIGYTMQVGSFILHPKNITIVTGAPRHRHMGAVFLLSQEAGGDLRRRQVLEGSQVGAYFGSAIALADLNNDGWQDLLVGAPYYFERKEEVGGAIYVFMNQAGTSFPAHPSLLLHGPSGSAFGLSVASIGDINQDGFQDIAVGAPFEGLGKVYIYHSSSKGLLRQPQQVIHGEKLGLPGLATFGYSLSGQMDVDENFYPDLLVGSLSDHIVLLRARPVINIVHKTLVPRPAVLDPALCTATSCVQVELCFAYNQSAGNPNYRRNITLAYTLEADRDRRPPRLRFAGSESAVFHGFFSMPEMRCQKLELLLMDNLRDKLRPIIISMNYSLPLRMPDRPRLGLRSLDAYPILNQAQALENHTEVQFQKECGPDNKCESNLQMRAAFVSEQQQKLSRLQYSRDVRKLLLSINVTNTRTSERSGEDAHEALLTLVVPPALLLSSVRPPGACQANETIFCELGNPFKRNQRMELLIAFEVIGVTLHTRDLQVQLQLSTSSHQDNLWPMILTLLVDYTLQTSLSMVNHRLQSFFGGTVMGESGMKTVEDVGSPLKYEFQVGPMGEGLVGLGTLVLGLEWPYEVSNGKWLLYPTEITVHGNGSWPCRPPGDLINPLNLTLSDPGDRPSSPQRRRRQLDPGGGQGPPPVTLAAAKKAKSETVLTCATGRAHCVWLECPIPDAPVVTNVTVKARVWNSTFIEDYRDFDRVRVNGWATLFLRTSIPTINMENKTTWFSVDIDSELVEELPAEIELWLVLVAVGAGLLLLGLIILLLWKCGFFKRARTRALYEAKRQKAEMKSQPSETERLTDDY

Protein sequences, listed by entry. Tags and fused reporters are not part of them. Residues count along the entry.
UniProt P05556: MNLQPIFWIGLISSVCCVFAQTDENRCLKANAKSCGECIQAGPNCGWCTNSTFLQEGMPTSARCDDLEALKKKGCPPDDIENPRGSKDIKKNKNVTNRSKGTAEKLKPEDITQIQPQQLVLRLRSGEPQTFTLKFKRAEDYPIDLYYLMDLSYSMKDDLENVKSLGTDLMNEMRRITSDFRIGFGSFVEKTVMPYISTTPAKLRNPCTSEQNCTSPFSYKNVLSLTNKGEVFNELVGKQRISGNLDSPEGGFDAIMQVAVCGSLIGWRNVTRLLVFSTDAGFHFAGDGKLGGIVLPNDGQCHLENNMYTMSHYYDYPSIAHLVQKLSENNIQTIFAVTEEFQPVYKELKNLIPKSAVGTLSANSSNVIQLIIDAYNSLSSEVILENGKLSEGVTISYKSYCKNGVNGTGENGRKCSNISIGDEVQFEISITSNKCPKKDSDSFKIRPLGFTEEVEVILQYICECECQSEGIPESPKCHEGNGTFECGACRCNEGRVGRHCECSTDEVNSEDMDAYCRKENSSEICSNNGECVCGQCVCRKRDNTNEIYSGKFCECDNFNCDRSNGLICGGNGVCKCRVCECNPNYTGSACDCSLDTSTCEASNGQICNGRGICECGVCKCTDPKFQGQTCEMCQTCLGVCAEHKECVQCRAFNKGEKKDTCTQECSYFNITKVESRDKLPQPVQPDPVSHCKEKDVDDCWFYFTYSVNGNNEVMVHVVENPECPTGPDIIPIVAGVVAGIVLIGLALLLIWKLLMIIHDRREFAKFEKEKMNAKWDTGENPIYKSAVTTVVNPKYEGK
UniProt P31697, residues 37-241: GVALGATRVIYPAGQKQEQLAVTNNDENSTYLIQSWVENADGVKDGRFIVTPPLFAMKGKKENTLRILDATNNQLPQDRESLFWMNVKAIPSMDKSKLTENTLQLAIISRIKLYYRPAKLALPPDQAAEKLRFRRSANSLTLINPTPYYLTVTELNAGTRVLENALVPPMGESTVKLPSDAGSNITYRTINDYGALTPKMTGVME

FimC_(6XHisFLAG) (from UniProt P31697 37-241)
binding [1]: no binding | binding [2]: no binding

Source: article PMC1914067
